Consider five molecules from patent publication US20250340662A1.

Sequences of proteins named here, by UniProt entry; tags and fusion partners are left off. A change or cut given only in a name is not applied to a line headed by its entry.
UniProt P16070: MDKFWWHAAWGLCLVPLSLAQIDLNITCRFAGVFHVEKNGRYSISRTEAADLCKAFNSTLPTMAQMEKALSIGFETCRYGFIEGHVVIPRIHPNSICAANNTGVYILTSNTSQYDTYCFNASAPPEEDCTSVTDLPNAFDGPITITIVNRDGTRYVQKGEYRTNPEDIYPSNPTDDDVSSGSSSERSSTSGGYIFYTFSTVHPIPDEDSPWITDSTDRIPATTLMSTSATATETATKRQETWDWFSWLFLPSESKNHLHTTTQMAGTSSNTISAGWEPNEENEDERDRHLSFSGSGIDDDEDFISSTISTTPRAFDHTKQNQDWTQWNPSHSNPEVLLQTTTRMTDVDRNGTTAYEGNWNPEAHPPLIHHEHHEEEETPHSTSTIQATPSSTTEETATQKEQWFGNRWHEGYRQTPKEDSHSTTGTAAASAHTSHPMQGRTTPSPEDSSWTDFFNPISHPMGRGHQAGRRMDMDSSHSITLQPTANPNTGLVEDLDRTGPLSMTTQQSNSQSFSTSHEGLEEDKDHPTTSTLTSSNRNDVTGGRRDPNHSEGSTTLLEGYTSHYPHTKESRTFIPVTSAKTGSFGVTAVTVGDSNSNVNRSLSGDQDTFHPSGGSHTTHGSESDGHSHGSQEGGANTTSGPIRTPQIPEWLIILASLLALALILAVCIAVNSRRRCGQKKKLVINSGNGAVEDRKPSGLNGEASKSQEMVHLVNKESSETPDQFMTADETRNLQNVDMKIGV

Positions count from the first letter of the chain named. No constants are given. Whether binding was seen depends on the method and setting. Some results given as binding are weak or reduced against the parent protein; the word gives no strength.

Assay [1] concerns the target Cynomolgus v6-peptide (cynomolgus). In words: SPR SCK, antibody immobilised.
Assay [2] addresses Human CD44v6 iso4-Fc (human) (UniProt P16070). In words: SPR SCK, antibody immobilised.

B1: AL-MN114-71 IgG1 LALA IAHA (antibody, V domains shown)
VH: EVQLLESGGGLVQPGGSLRLSCAASGFSFRSFAMSWVRQAPGKGLEWVSAISGGGSSTFYADSVKGRFTISRDNSKNTLYLQMNSLRAEDTAVYYCARHYYSDSDYRSSAAMDYWGQGTLVTVSS
VL: DIQMTQSPSSLSASVGDRVTITCRASQSISSYLNWYQQKPGKAPKLLIYAASTLQSGVPSRFSGSGSGTDFTLTISSLQPEDFATYYCQQDLYLLTFGQGTKLEIK
With B1, the binding entry in assay [1] and in assay [2] was “binds” in each case.

B2: AL-MN114-444 IgG1 LALA IAHA (antibody, V domains shown)
VH: B1 VH with S28T
VL: B1 VL with S30G, A50S, T53S
For the molecule B2, the binding entry in assay [1] and in assay [2] was “binds” in each case.

B3: AL-MN114-132 IgG1 LALA (antibody, V domains shown)
VH: B1 VH with S28T, R30S, F32Y, F59Y
VL: B1 VL with T53S
Turning to B3, the binding entry in assay [1] was “binds”.

B4: AL-MN114-132 IgG1 LALA IAHA (antibody, V domains shown)
VH: B1 VH with S28T, R30S, F32Y, F59Y
VL: B1 VL with T53S
Consider B4, for which, in assay [1], the binding result is reported as “binds”.

B5: AL-MN114-465 IgG1 LALA IAHA (antibody, V domains shown)
VH: B1 VH with R30G, F32Y, G53A
VL: B1 VL with A50T, T53S
With B5, the binding result in assay [1] and in assay [2] was “binds” in each case.
